In publication doi:10.1101/2024.04.05.588290:
No signal at the amounts used counts as a negative.

Sequences of proteins named here, by UniProt entry; tags and fusion partners are left off. Residues count along the entry.
UniProt P05231, 30-212: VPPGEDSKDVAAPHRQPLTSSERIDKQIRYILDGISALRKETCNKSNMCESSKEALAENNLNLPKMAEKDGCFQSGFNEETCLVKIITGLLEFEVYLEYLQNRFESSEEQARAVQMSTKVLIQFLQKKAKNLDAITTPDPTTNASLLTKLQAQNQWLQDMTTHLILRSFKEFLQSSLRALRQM

Molecular target: interleukin-6 (IL-6), human recombinant (Homo sapiens) (UniProt P05231)
Assay: SWCNT near-infrared fluorescence quenching, (7,5) chirality
Conditions: SWCNT complex, 1X PBS + 10% FBS, no significant response, p=0.58306; 0.5 mg/L SWCNT-ssDNA in 1X PBS (or 1X PBS + 10% FBS), 5250 ng/mL IL-6, 120 uL, triplicate, up to 180 min; pH and temperature not stated; commercial protein; label: noncovalently adsorbed on SWCNT; single-stranded DNA

Does “TGTGTGTGTGTGTGTGTGTGTGTGTGTGTGGTGGCAGGAGGACTATTTATTTGCTTTTCT [(GT)15+31Apt]” bind?
Result: no binding
